Source: PubChem BioAssay AID1347076 (National Center for Advancing Translational Sciences (NCATS), 2019)
Out of some 400,000 compounds screened, about 13,000 (3.2%) were called active. The shares of active, inactive and inconclusive entries below differ from those in the screen. The call rests on the fitted dose curve; in most records, active means well fitted cell-killing curve with a large enough effect; inconclusive means small, poorly fitted or top-dose-only effect, or effect the other way; inactive means flat fitted curve, though single readings scatter. Potencies beside an inconclusive call are fits to weak or partial responses and may not hold up.

test: qHTS assay for MDR1-selective chemotherapeutics: Primary screen using the drug-selected MDR subline cells KB-V1; conditions: KB-V1 MDR cells viability, CellTiter-Glo, 72 h; activity change, negative = cytotoxicity: at 46.1 µM (top of the series); further: nearly all actives have a fitted effect of over 60% in size
In short: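 Cytotoxicity toward P-gp-expressing KB-V1 cells was determined as loss of CellTiter-Glo luminescence after 72 h at 37 degrees C. Compounds were tested in quantitative HTS format across a concentration range, with curves fitted to normalized data.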
On the % scale 0 is the no-effect control and ±100 the full control effect; potency means the concentration at half of the fitted maximal effect.

| Compound | Potency | activity change, negative = cytotoxicity |
| --- | --- | --- |
| COc1ccc(-c2csc(Nc3ccc(O)cc3)n2)cc1 | inconclusive: 16.4 µM [cytotoxic, single point] | – |
| CCOC(=O)c1c(NC(=O)c2ccoc2C)sc2c1CCC2 | active: 20.6 µM | – |
| O=[N+]([O-])c1ccc(S(=O)(=O)N2CCN(Cc3c[nH]c4ccccc34)CC2)cc1 | active: 20.6 µM | – |
| CC(C)c1nc2ccccc2n1CC(O)COC1CCCCC1 (centres undefined) | inconclusive: 14.6 µM [cytotoxic, partial curve, poor fit] | – |
| CCc1ccc(-c2ccc3nnc(SCC(N)=O)n3n2)cc1 | inconclusive: 5.17 µM [rising, partial curve, poor fit] | – |
| CCCCN1C(=N)N([C@@H](C)CN2CCC[C@H]2CN2C(N)=NC[C@H]2CC(C)C)C[C@H]1[C@H](C)CC | – | inactive: -12.4% |
| CC(C)c1ccc2[nH]c3c(c2c1)[C@@H]1CCN2C(=O)CCC[C@H](C3)[C@H]12 | inconclusive: 20.6 µM [cytotoxic, partial curve, poor fit] | – |
| CC(C)(C)OC(=O)CNC(=O)c1nc[nH]c1C(=O)N1CCN(c2ccccc2)CC1 | – | inactive: 5.13% |
| Cn1c(-c2ccc3c(c2)OCO3)cnc1NCc1cccc(Cl)c1 | inconclusive: 29.1 µM [cytotoxic, single point] | – |
| Clc1cccc(-c2nc(NCCN3CCOCC3)c3ccccc3n2)c1 | active: 20.6 µM | – |
| O=C(Nc1cccnc1)c1ccc2nc(-c3ccccc3)c(-c3ccccc3)nc2c1 | inconclusive: 29.1 µM [cytotoxic, single point] | – |
| CC(C)N1CCN(S(=O)(=O)c2ccccc2)c2ccccc21 | inconclusive: 23.1 µM [cytotoxic, partial curve, poor fit] | – |
| COc1ccccc1-n1cnc2sc(-c3ccccc3)cc2c1=O | inconclusive: 2.31 µM [cytotoxic, partial curve, poor fit] | – |
| COCc1nnc(NC(=O)CCS(=O)(=O)c2ccccc2)s1 | – | inactive: 18% |
| COc1cc2c(-c3ccc4c(c3)OCO4)c(-c3ccsc3)oc(=O)c2cc1OC | inconclusive: 29.1 µM [cytotoxic, single point] | – |
| NC(=O)C1CCN(c2nccc(-c3ccc4c(c3)OCCO4)n2)CC1 | inconclusive: 29.1 µM [cytotoxic, single point] | – |
| CC(C)c1ccc(OCC(O)CN2CCN(c3ccccc3)CC2)cc1 (centres undefined) | inconclusive: 29.1 µM [cytotoxic, single point] | – |
| Cc1cc(C)nc(NC(=O)c2ccc(C)o2)n1 | inconclusive: 20.6 µM [rising, single point] | – |
| CC(C)=CCN1CCN(Cc2ccc(Sc3nncn3C)o2)CC1CCO (centres undefined) | – | inactive: 0.322% |

Laid out differently: 4 of the compounds above.
Compound | Potency | activity change, negative = cytotoxicity
CC(C)c1nc2ccccc2n1CC(O)COC1CCCCC1 (centres undefined) | inconclusive: 14.6 µM [cytotoxic, partial curve, poor fit] | –
CCc1ccc(-c2ccc3nnc(SCC(N)=O)n3n2)cc1 | inconclusive: 5.17 µM [rising, partial curve, poor fit] | –
CCCCN1C(=N)N([C@@H](C)CN2CCC[C@H]2CN2C(N)=NC[C@H]2CC(C)C)C[C@H]1[C@H](C)CC | – | inactive: -12.4%
CC(C)c1ccc2[nH]c3c(c2c1)[C@@H]1CCN2C(=O)CCC[C@H](C3)[C@H]12 | inconclusive: 20.6 µM [cytotoxic, partial curve, poor fit] | –
